# Results as given in PubChem BioAssay AID248 (DTP/NCI, 2004).
# The list shows only some results of the screen, not a fair sample: it is rich in T/C values a quarter to a half above the control, in often repeated tests (any T/C) and in doses without a T/C. Other doses and runs of a compound stand elsewhere. T/C is the treated group as % of the vehicle group. Some entries give survivors of the animals treated and no T/C: the source holds a T/C of zero for them, seemingly a mark for toxic or unscored doses. Some doses without a T/C left all or most animals alive at the check, yet need not have been tolerated: survival well below the control is almost never listed, so the zero probably covers shortened survival too. Survivors were counted at the toxicity check, usually on the fifth day, unless a day is given; later deaths do not show. Schedule codes are those of the source, read here as Q, the interval in days (D) or hours (H), X, the number of doses. Some entries hold several experiments; the values are given in rising order. For survival time, this PubChem deposit counts one and a half times the control or more as active, and values a quarter to a half above the control carry no call in these data; other NCI protocols may use other cut-offs.
# System: L1210 leukemia ip in BDF1 mice, survival T/C
# Experiment: NCI In Vivo Anticancer Drug Screen. Data for tumor model L1210 Leukemia (intraperitoneal) in B6D2F1 (BDF1) mice
# Conditions: T/C endpoint: mean survival time, higher T/C = longer survival
# [1] = dose: 40.0 mg/kg/injection, schedule: Q04DX003 (ip), vehicle: Klucel (hydroxypropylcellulose) (HPC)
# [2] = dose: 80.0 mg/kg/injection, schedule: Q04DX003 (ip), vehicle: Klucel (hydroxypropylcellulose) (HPC)
# [3] = dose: 100.0 mg/kg/injection, schedule: Q04DX003 (ip), vehicle: Klucel (hydroxypropylcellulose) (HPC)
# [4] = dose: 200.0 mg/kg/injection, schedule: Q04DX003 (ip), vehicle: Klucel (hydroxypropylcellulose) (HPC)
# [5] = dose: 400.0 mg/kg/injection, schedule: Q04DX003 (ip), vehicle: Klucel (hydroxypropylcellulose) (HPC)
structure (smiles),measurement,setting,value
CC(C)(C#N)C(C)(C)C#N,survivor count,"dose: 12.5 mg/kg/injection, schedule: Q04DX003 (ip), vehicle: saline with Tween-80",0 of 6
same,survivor count,"dose: 25.0 mg/kg/injection, schedule: Q04DX003 (ip), vehicle: saline with Tween-80",0 of 6 and 6 of 6
same,survivor count,"dose: 50.0 mg/kg/injection, schedule: Q04DX003 (ip), vehicle: saline with Tween-80",0 of 6 and 5 of 6
same,survivor count,"dose: 100.0 mg/kg/injection, schedule: Q04DX003 (ip), vehicle: saline with Tween-80",0 of 6 and 6 of 6
Nc1ccc2c(c1)-c1ccccc1C1=NCCN12,survivor count,[1],6 of 6
same,survivor count,[2],0 of 6
same,survivor count,[3],0 of 6
same,survivor count,[4],0 of 6
same,survivor count,[5],0 of 6
CCCCC1CN=C(c2ccc(NC(=O)c3ccc(C(=O)Nc4ccc(C5=NCC(CCCC)CN5)cc4)c(Cl)c3)cc2)NC1 (stereo not given),T/C,"dose: 11.0 mg/kg/injection, schedule: Q01DX015 (ip), vehicle: methylcellulose (MC)",125 % of control
same,T/C,"dose: 31.0 mg/kg/injection, schedule: Q01DX015 (ip), vehicle: methylcellulose (MC)",128 % of control
same,survivor count,"dose: 125.0 mg/kg/injection, schedule: Q01DX015 (ip), vehicle: methylcellulose (MC)",3 of 6
same,survivor count,"dose: 250.0 mg/kg/injection, schedule: Q01DX015 (ip), vehicle: methylcellulose (MC)",1 of 6
CC(C)CCNc1ncnc2[nH]ncc12,survivor count,"dose: 75.0 mg/kg/injection, schedule: Q01DX009 (ip), vehicle: Klucel (hydroxypropylcellulose) (HPC)",3 of 6
same,survivor count,"dose: 115.0 mg/kg/injection, schedule: Q01DX009 (ip), vehicle: Klucel (hydroxypropylcellulose) (HPC)",0 of 6
same,survivor count,"dose: 170.0 mg/kg/injection, schedule: Q01DX009 (ip), vehicle: Klucel (hydroxypropylcellulose) (HPC)",0 of 6
IC1=CC2CCC(C1)C2 (stereo not given),survivor count,"dose: 400.0 mg/kg/injection, schedule: Q01DX009 (ip), vehicle: acetone",1 of 6
NC(CC(=O)O)C(=O)O.[Cu+2] (stereo not given),survivor count,[1],6 of 6
same,survivor count,[2],6 of 6
same,survivor count,[3],0 of 6
same,survivor count,[4],0 of 6
same,survivor count,[5],6 of 6
CCNC(C)(C)C(SSSC(c1ccc(Cl)cc1)C(C)(C)NCC)c1ccc(Cl)cc1 (stereo not given),survivor count,"dose: 50.0 mg/kg/injection, schedule: Q01DX009 (ip), vehicle: other",6 of 6
same,survivor count,"dose: 200.0 mg/kg/injection, schedule: Q01DX009 (ip), vehicle: Klucel (hydroxypropylcellulose) (HPC)",0 of 6
same,survivor count,"dose: 200.0 mg/kg/injection, schedule: Q01DX009 (ip), vehicle: other",0 of 6
